These are yes or no findings as the source states them, for the method shown. Some results given as binding are weak or reduced against the parent protein; the word gives no strength.
Target: T1, recombinant huADAM10D+C protein (human, UniProt O14672 455-646)
T1 construct: the whole entry is named here (the bovine construct was 455-646); also called huADAM10D+C domain protein; immobilised recombinant huADAM10D+C
T1 sequence: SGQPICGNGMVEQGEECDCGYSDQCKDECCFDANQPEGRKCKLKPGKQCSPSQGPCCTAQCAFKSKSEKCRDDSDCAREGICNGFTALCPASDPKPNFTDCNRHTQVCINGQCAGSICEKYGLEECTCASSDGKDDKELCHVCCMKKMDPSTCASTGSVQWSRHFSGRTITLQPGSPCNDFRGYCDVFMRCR
Test: SPR, BIAcore 3000

B1: hu8C7, fully humanised version of 8C7 (antibody, human IgG1, kappa, V domains shown)
VH: EVQLQQSGAELAKPGSSVKLSCKASGYTFTNYWLQWVKQRPGQGLEWIGAIYPRDGDAKYSQKFKDKASITVNESTSTAYMHLSSLRSEDTAVYYCARANYGLYYAMDRWGQGTTVTVSS
VL: DIVLTQSPAFMSVSPGERVSVSCRASQNIGTNIHWYQQRPDQSPRLLIKYASESISGIPSRFSGSGSGTDFYLTINSVESEDIAVYFCQQSNRWPFTFGSGTKLEVKR
notes: Human IgG1-kappa; humanised variable domains replaced the murine ones in the ch8C7 constructs; The exact V/C junction is not described; also called humanized 8C7
In the case of B1, the binding is reported as “binds”.

Reference: patent US20190105405A1 (MONASH UNIVERSITY, published 2019)
